# The whole screen tested about 31,000 sequences, of which about 1,400 (4.5%) were called active.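 Rule for the calls: active = median seed-adjusted z-score above 1 or below -1; inactive = the rest.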 The list shows a part of the results.
# Test: Novel Modifiers of Survival Motor Neuron (SMN) Protein: Gene Identification via Genome-wide siRNA Screen;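 note: luminescence tracks full-length SMN protein made from the SMN2 reporter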
# Details: HEK293T SMN2-luciferase reporter, siRNA knockdown, 72 h; actives lie on both sides
# Procedure, shortened: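 siRNA screen, 10418 genes ×3 siRNAs; 1 pmol/well, lipid reverse transfection into HEK293T SMN2-luc reporter line. 72 h, 37 °C, 5% CO2; ONE-Glo readout. Data: neg-ctrl normalized, log10, MAD; hit = MAD >1.0 or < -1.0.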
row,Sequence,median seed-adjusted z-score
1,GGGUCUGAAGUGAACAAGATT against RBBP8,inactive: 0.323
2,GAGCUGAUCUGCAAGAUCATT against DIRAS3,inactive: -0.419
3,CAAAGUGAAGAGAUACCUATT against ZNF346,inactive: 0.00564
4,CCAGGCUAUUCCUACAACATT against PITX2,inactive: -0.231
5,AGACAAUCGUCAUGCAAUUTT against CDC37,inactive: 0
6,CGAUUCCAGCAGUAGCUCATT against AP3B2,active: -2.45
7,GGGUUGAAUUUAUUGAGCUTT against GHR,inactive: 0.273
8,CAAAAUGCAUUAGCUGAAATT against VIP,active: 1.52
9,GUAUCUGCAUCAUGCAAAATT against HAS2,inactive: 0.354
10,GAGAGAACAUAAUUCAUUUTT against PADI4,inactive: 0.417
11,GGCGUGGUCUUACGAGAUATT against SLC12A7,inactive: -0.0309
12,CAAACGGCUCUAUAAUGAATT against CCNI,inactive: -0.174
13,GAUUGAAGGCGGUGUCUAATT against NEK1,inactive: 0.296
14,ACUUCACAGCUGUUCGUGATT against SLC30A2,inactive: -0.402
15,GAAGUACCCAAACUAUAAATT against SOX6,inactive: 0.0135
16,GCCUCUGGCGAUUUGGUGATT against NFKBIL1,inactive: 0.282
17,CUUUUUCAAUGAAAGAGAATT against SOX1,inactive: 0.415
18,CAAGGACUGCCCUAAAGUATT against SERAC1,inactive: -0.0919
19,GAUACUGAGAGAUUUCUUUTT against USP27X,inactive: 0.43
20,GAACAGCACAAGAGUUAUATT against NOS3,inactive: 0.212
21,GAGCAGUGAUUAACGAUAUTT against AUH,inactive: 0
22,GGCAAAAAUCGAUAAUGAATT against CYB5R2,inactive: -0.403
23,GAGCCCAUCUUAAUCCCGATT against AMBP,inactive: -0.679

# Pulled one by one from the list above, two records:
row,Sequence,median seed-adjusted z-score
10,GAGAGAACAUAAUUCAUUUTT against PADI4,inactive: 0.417
18,CAAGGACUGCCCUAAAGUATT against SERAC1,inactive: -0.0919

# Next records

row,Sequence,median seed-adjusted z-score
1,CGAGUUCUAUCUUGAGAAUTT against TEX13A,active: -1.22
2,GCCCUUUACAUACUCUUCATT against IL23R,inactive: 0.512
3,GCAUGUAAGAAUCCACAAUTT against ZNF187,inactive: 0.419
4,GAGUUUCAACAAACAGACATT against APOA5,inactive: -0.791
5,GACCUAUCGUUGGGUUAUATT against ASRGL1,inactive: 0
6,GACUUUCACUUCCGCCUUATT against OAZ3,inactive: 0.046
7,CAGUGAUGAUUACUACAAATT against PJA1,inactive: -0.275
8,CCCGAGAACCAGUUGUUAATT against CLDN19,inactive: 0
9,GCUCAUAUAUAGAUUCUUATT against ALDH8A1,inactive: 0.0628
10,GACACUAGCUUAAACAACUTT against ZFAND5,inactive: 0.0289
11,CACUUCGCCUGAGAUCAAATT against GIPC2,inactive: -0.0367
12,GCAGGAGUAUGGGACCAGATT against TARBP2,inactive: 0.068
13,CCUUGUUGCUCAUCGGAGATT against ZNF606,inactive: 0.118
14,GGAUCACAUUGACAGCAAUTT against FOXP2,inactive: 0.222
15,GAUUGAAAUAUGACGUGAATT against TSN,inactive: 0.572
16,AGAUGAUACUAAUGUGACATT against RAB9B,inactive: -0.0301
17,CCACCUCAGGCUAUGCUAATT against SP7,inactive: -0.0435
18,GCUCUAAGAUGAUCGACAATT against GNAI2,inactive: 0
19,CCAACUAAAUCUCCAACAATT against RASGRF1,inactive: 0
20,CUACCAAAGAAAAAGUCAATT against RNASE9,inactive: 0.188
21,CAACAUUGGAUCCUACAUATT against CDK7,inactive: -0.524
22,CAUCCAUUGUGGAGGCUAUTT against IL21R,inactive: 0.0068
23,CCGAGGUGUUCUUUCUCUATT against CHST2,inactive: 0

# Given with bars between the fields: part of the list above.
row | Sequence | median seed-adjusted z-score
16 | AGAUGAUACUAAUGUGACATT against RAB9B | inactive: -0.0301
17 | CCACCUCAGGCUAUGCUAATT against SP7 | inactive: -0.0435

# Next part:

row,Sequence,median seed-adjusted z-score
1,CAACAACCCUGAGCGAUUUTT against TRIM58,inactive: -0.582
2,CUCUGGAAUUAGUCACAGATT against MMAB,inactive: 0
3,GGACUUGGAUUCGAGGAUATT against COL15A1,inactive: 0.161
4,CCGCUCAACUUGAACAUGATT against HOXD12,inactive: -0.18
5,CGAUAUUACUGGUCGUGGATT against ADH7,inactive: -0.388
6,GAUUACUUCUUGACUAUCATT against OCRL,inactive: -0.545
7,CGGUACUGGAGAACACGGATT against MFI2,inactive: 0.365
8,GCAGAACUGUUGCGGAUUATT against TOPBP1,inactive: 0.0888
9,CGGUUACGACUGGAUGGUATT against SCML2,inactive: -0.538
10,GAACAACAGAAAUAUGAGATT against TTC35,inactive: -0.0898
11,GAAUAAAGUCUGGAAUGUUTT against TRIM7,inactive: -0.845
12,GGUACUUCGUGAUCCGCAUTT against NECAP2,inactive: -0.539
13,CGAAGACACUUUCCGGCAATT against ATP6V1F,inactive: -0.428
14,GAUGCGAUUUGAUGAGAUATT against EPS15L1,inactive: -0.0511
15,GGCCUCUACUUGCACAACATT against AMIGO3,inactive: 0.752
16,AGGCCCGAGUGCAAAAGUATT against ARX,inactive: 0.756
17,CCGUGCUGACCUCCAAAUATT against HBA1,active: -1.03
18,UCACGGCCAUGAGUCUAGATT against LTB4R,inactive: 0.498
19,GCCCUACCAUAAUCGUCAATT against TM9SF3,inactive: -0.267
20,GGAACGACAUGGAGACCAUTT against PTGES,inactive: -0.0851
21,CACCAACGUGUACAACAAATT against CACNA2D4,inactive: -0.0464
22,UCGUGGAGGUGAUCUAUUATT against RAB6C,active: -1.08
23,GGAUCUUCAAGCAAGGGUATT against ZNF462,inactive: 0.0487

# Reference: PubChem BioAssay AID1347426 (Functional Genomics Laboratory (NCATS/FGL), 2020)
